Data reported in paper PMC4797271.
For at least one entry, the source does not settle the construct or the ends of the probe. Weaker means in comparison with the reference protein, sequence or condition of that experiment. Tags and fusion partners may be left off the protein sequences shown.

Molecular target: T1, ComA (UniProt P14204)
T1 sequence (looked up, limits assumed): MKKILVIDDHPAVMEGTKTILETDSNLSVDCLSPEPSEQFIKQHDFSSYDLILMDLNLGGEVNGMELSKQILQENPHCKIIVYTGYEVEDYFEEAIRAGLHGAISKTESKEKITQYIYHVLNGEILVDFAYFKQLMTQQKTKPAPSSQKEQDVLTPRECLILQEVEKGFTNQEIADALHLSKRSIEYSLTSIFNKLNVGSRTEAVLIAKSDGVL
Assay: EMSA
Details: EMSA: 10 mM HEPES pH 7.6, 2 mM MgCl2, 0.1 mM EDTA, 200 mM KCl, 5 mM DTT, 10% glycerol, 10 ng DNA in 15 ul, 20 min, room temperature, recombinant protein, protein details: N-terminal His6 (from expression primer), label: 5' biotin on strand 1

Sequence | binding result (binds at higher ComA) | binding result (tolerated, n=4 optimal)
AAACTGGAATCGAAACTTTGCGGCCATTTGCGGTGATAAAAACATTTTT (double strand) [PDR n4] | binds more weakly | –
ATGTTTAGTGGAAATGATTGCGGCATCTCCGCAAAAAATATTGCTGTAAAT (double strand) [PIR n5] | – | binds more weakly
